PubChem BioAssay AID686938, Drosophila RNAi Screening Center – 2013
Assay: 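Looking for CRAC channel components and the factors controlling them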 (primary screen). System: Drosophila S2R+ cells. Knock-down reagent: long dsRNA against Drosophila genes, about 0.25 µg dsRNA per well, roughly 10,000 cells. Timing: 5 days of knock-down before the calcium assay. Conditions: thapsigargin (SERCA pump blocker) to empty calcium stores; entry signal taken 4 min after adding it. Measured: 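Duplicate raw fluo-4 intensities per well from a plate reader, at rest and four minutes after thapsigargin emptied calcium stores; entry-to-rest ratio filled for only some wells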. Reading the numbers: calcium entry signal: higher = stronger calcium signal after store depletion; entry to resting ratio: higher = more calcium entry relative to resting level; resting calcium signal: higher = higher resting calcium signal. Hit rule: 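Called when the plate z-score of the entry-to-rest ratio, mean of duplicates, falls below −3; wells with low overall dye signal (Fmax z below −2) or more than five off-targets excluded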. Calls: active = strongly reduced calcium entry; inactive = no strong reduction.
The screen tested about 23,000 reagents; below is a random part of those with a known target gene and a result. Over the whole deposit, 75 (0.33%) were called active. 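Raw plate signals without normalisation; calls rest on plate z-scores that were not deposited; ratio present for only 364 wells.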 Entries without a mark were called inactive. The record does not give: the dose of the treatment.

Target gene | dsRNA | calcium entry signal, replicate 1 (fluorescence units) | calcium entry signal, replicate 2 (fluorescence units) | entry to resting ratio | resting calcium signal, replicate 1 (fluorescence units) | resting calcium signal, replicate 2 (fluorescence units)
CG15169 | DRSC02470 | 3.58e7 | 5.20e7 | – | 1.81e7 | 2.08e7
CG15818 | DRSC02505 | 5.28e7 | – | – | 2.20e7 | –
CCT8 | DRSC07130 | 2.69e7 | 2.44e7 | – | 1.60e7 | 1.36e7
Lcp65APsi | DRSC08795 | 4.58e7 | 3.37e7 | – | 2.33e7 | 1.61e7
Lcp65APsi | DRSC10342 | 3.06e7 | 4.22e7 | – | 1.44e7 | 1.99e7
Rbp | DRSC15724 | 9.93e6 | 1.25e7 | – | 6.87e6 | 4.27e7
Rbp | DRSC15726 | 2.20e7 | 3.51e7 | – | 1.00e7 | 4.41e7
SNF4Agamma | DRSC13461 | 5.40e7 | 3.75e7 | – | 2.60e7 | 1.85e7
SNF4Agamma | DRSC13463 | 4.66e7 | 3.92e7 | – | 2.42e7 | 1.88e7
SNF4Agamma | DRSC15879 | 3.09e7 | 3.60e7 | – | 6.62e7 | 1.69e7
SNF4Agamma | DRSC16847 | 6.58e7 | 4.23e7 | – | 3.31e7 | 2.16e7
t-Grip128 | DRSC07853 | 5.01e7 | 3.77e7 | – | 2.31e7 | 1.66e7
CG15096 | DRSC06525 | 4.51e7 | 4.20e7 | – | 2.00e7 | 1.76e7
toy | DRSC17222 | 4.86e7 | 4.87e7 | – | 2.09e7 | 2.08e7
CG34417 | DRSC17467 | 3.42e7 | 3.52e7 | – | 1.71e7 | 1.65e7
CG34417 | DRSC18332 | 2.51e7 | 4.60e7 | – | 1.27e7 | 2.23e7
CG34417 | DRSC18333 | 3.38e7 | 3.53e7 | – | 1.72e7 | 1.61e7
CG8289 | DRSC20101 | 3.93e7 | 3.99e7 | – | 1.83e7 | 1.73e7
PPYR1 | DRSC19612 | 1.54e7 | 2.03e7 | – | 8.39e6 | 9.52e6
Obp19c | DRSC20528 | 5.08e7 | 4.13e7 | – | 2.48e7 | 1.67e7
CG10681 | DRSC09777 | 4.62e7 | 4.13e7 | – | 3.13e7 | 1.81e7
CG10681 | DRSC21484 | 2.79e7 | 3.80e7 | – | 1.28e7 | 1.69e7
Gr47b | DRSC05275 | 3.59e7 | 5.86e7 | – | 1.92e7 | 2.55e7
CG17724 | DRSC06687 | 4.18e7 | 4.21e7 | – | 2.12e7 | 1.88e7
CG42254 (retired record) | DRSC06194 | 3.40e7 | 3.93e7 | – | 1.68e7 | 1.70e7
Qsox3 | DRSC16096 | 4.52e7 | 4.63e7 | – | 6.23e7 | 2.26e7
GrlHz | DRSC04424 | 3.75e7 | – | – | 1.94e7 | –
CG13114 | DRSC02212 | 3.99e7 | 6.74e7 | – | 1.98e7 | 2.77e7
Cpr62Ba | DRSC08403 | 3.47e7 | 3.98e7 | – | 1.82e7 | 1.92e7
CG34238 | DRSC09040 | 4.07e7 | 3.25e7 | – | 2.17e7 | 1.53e7
CNMa | DRSC08405 | 3.80e7 | 3.48e7 | – | 1.97e7 | 1.72e7

Records above whose gene name starts with G or g (2):
Target gene | dsRNA | calcium entry signal, replicate 1 (fluorescence units) | calcium entry signal, replicate 2 (fluorescence units) | entry to resting ratio | resting calcium signal, replicate 1 (fluorescence units) | resting calcium signal, replicate 2 (fluorescence units)
Gr47b | DRSC05275 | 3.59e7 | 5.86e7 | – | 1.92e7 | 2.55e7
GrlHz | DRSC04424 | 3.75e7 | – | – | 1.94e7 | –

More results follow:
Target gene | dsRNA | calcium entry signal, replicate 1 (fluorescence units) | calcium entry signal, replicate 2 (fluorescence units) | entry to resting ratio | resting calcium signal, replicate 1 (fluorescence units) | resting calcium signal, replicate 2 (fluorescence units)
spdi | DRSC18487 | 3.65e7 | 4.44e7 | – | 1.67e7 | 1.91e7
spdi | DRSC18488 | 3.21e7 | 4.73e7 | 2 | 1.60e7 | 2.02e7
Sod2 | DRSC07554 | 4.16e7 | 4.28e7 | – | 1.87e7 | 2.15e7
Dhc62B | DRSC08655 | 3.99e7 | 3.86e7 | – | 1.91e7 | 1.80e7
Trf4-1 | DRSC17775 | 3.14e7 | 3.36e7 | – | 1.58e7 | 1.76e7
CG33128 | DRSC00294 | 3.88e7 | 1.60e7 | – | 1.72e7 | 9.30e6
Patj | DRSC08712 | 3.78e7 | 3.86e7 | – | 1.79e7 | 1.86e7
CR41501 | DRSC07785 | 3.56e7 | 4.00e7 | – | 1.57e7 | 1.94e7
AIMP3 | DRSC04500 | 3.59e7 | 4.19e7 | – | 1.85e7 | 1.82e7
CG31337 | DRSC12981 | 3.35e7 | 3.61e7 | – | 1.85e7 | 1.83e7
rngo | DRSC19903 | 4.65e7 | 2.80e7 | – | 2.41e7 | 1.47e7
CG8778 | DRSC07264 | 3.60e7 | 3.84e7 | – | 1.79e7 | 1.80e7
CG13850 | DRSC14700 | 3.36e7 | 3.11e7 | – | 1.64e7 | 1.53e7
Blm | DRSC16911 | 3.34e7 | 3.94e7 | – | 1.34e7 | 1.79e7
CG8568 | DRSC20113 | 2.80e7 | 3.19e7 | – | 1.31e7 | 1.36e7
KdelR | DRSC03353 | 3.02e7 | – | – | 2.03e7 | –
Aps | DRSC10629 | 2.74e7 | 3.48e7 | – | 1.41e7 | 1.56e7
CG15446 | DRSC20518 | 3.43e7 | 4.64e7 | – | 1.99e7 | 2.15e7
CarT | DRSC03196 | 2.76e7 | – | – | 1.42e7 | –
Ipp | DRSC16718 | 4.45e7 | 6.38e7 | – | 2.08e7 | 5.09e7
CG7214 | DRSC03028 | 1.75e7 | 2.58e7 | – | 1.23e7 | 1.73e7
CG7214 | DRSC21869 | 2.80e7 | 4.75e7 | – | 1.34e7 | 2.24e7
CG12826 | DRSC06175 | 4.86e7 | 1.70e7 | – | 2.36e7 | 8.96e6
CG31528 | DRSC12003 | 4.04e7 | 2.75e7 | – | 2.32e7 | 1.44e7
CG15651 | DRSC04242 | 4.09e7 | 5.48e7 | – | 2.03e7 | 2.45e7
CG13367 | DRSC18485 | 2.55e7 | 4.45e7 | 2.1 | 1.20e7 | 1.88e7
CG13367 | DRSC18486 | 3.62e7 | 3.15e7 | 2.3 | 1.59e7 | 1.32e7
Ns3 | DRSC18607 | 2.63e7 | 2.79e7 | – | 1.19e7 | 1.44e7
CG9072 | DRSC20147 | 4.15e7 | 2.27e7 | – | 2.15e7 | 1.17e7
Naa60 | DRSC10301 | 3.07e7 | 5.10e7 | – | 1.51e7 | 2.22e7
CG4911 | DRSC10456 | 4.14e7 | 3.46e7 | – | 3.16e7 | 1.54e7
Cby | DRSC14591 | 3.61e7 | 3.95e7 | – | 5.39e7 | 1.74e7
CG30050 | DRSC05342 | 5.11e7 | 3.87e7 | – | 2.17e7 | 1.51e7
CG12782 | DRSC04127 | 2.26e7 | 2.26e7 | – | 1.25e7 | 1.07e7
Ugt37E1 | DRSC02248 | 3.56e7 | 2.46e7 | – | 1.76e7 | 1.23e7
Hsp68 | DRSC16712 | 5.76e7 | 5.50e7 | – | 2.66e7 | 2.20e7
Pgk | DRSC00769 | 4.29e7 | 4.66e7 | – | 2.03e7 | 2.09e7
Pgk | DRSC23340 | 3.49e7 | 3.41e7 | – | 2.22e7 | 1.63e7
RabX2 | DRSC18234 | 1.94e7 | 4.92e7 | – | 9.79e6 | 2.69e7
sob | DRSC00838 | 3.22e7 | 3.91e7 | – | 1.58e7 | 1.90e7
Dus3 | DRSC02059 | 4.60e7 | 4.64e7 | – | 1.93e7 | 2.11e7
Snmp1 | DRSC16168 | 3.69e7 | 3.77e7 | – | 4.00e7 | 1.72e7
Usp10 | DRSC08282 | 2.50e7 | 2.22e7 | – | 1.19e7 | 1.06e7
Usp10 | DRSC08373 | 2.31e7 | 3.31e7 | – | 1.33e7 | 1.55e7
